For two substances, binding results are on record in paper PMC3349659.

Protein sequences, listed by entry. Tags and fused reporters are not part of them.
UniProt O35929: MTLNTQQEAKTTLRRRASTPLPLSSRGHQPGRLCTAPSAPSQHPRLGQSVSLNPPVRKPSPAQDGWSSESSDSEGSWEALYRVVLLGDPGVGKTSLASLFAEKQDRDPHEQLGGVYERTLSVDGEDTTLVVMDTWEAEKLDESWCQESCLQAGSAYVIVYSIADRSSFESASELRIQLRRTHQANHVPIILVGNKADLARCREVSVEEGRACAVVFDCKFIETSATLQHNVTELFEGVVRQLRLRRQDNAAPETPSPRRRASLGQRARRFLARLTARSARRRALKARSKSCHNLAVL

These are yes or no findings as the source states them, for the method shown. Binding seen in cells or lysates may run through a third protein. Some binding calls cover weakened binding; strength is not graded here.

The assay deals with CFP-Rem (mouse) (UniProt O35929). The assay can be described thus: co-IP; co-transfected HEK 293 cells, lysate in 50 mmol/L Tris-HCl, 150 mmol/L NaCl, 1% NP-40; precipitated with anti-Rem, anti-Gem, anti-Rem2 or anti-Rad antibody and protein G beads; blot with anti-GFP.

In the case of “YFP-β_(2aTM) (from UniProt Q8VGC3-2 1-604)”, the binding result is recorded as “no binding”.

On to YFP-β2a (from UniProt Q8VGC3-2 1-604), for which the binding result was “binds”.
